# Paper PMC12040169 (PLOS Biology, 2025)
# The list shows a part of the results.
# Test system: T1, CTL2-GFP (C. trachomatis L2/434/Bu, GFP-expressing)
# T1 construct: L2/434/Bu, GFP-expressing
# Design: species or system HeLa; Intracellular C. trachomatis growth in HeLa cells, bulk GFP fluorescence relative to DMSO
# Settings: bulk GFP, single well; 28.5 h, 10 µM; inhibitor
row,SMILES,% of control remaining [%]
1,Cc1ccc(CNC(=O)c2cnoc2-c2ccc(Br)cc2)cc1F [CBK154896],97.1364
2,COc1ccc2cc(C(=O)N3CCC(c4ccncc4)CC3)[nH]c2c1 [CBK283799],149.95
3,COc1ccccc1C1(NC(=O)Cn2nc(C)cc2C)CCCC1 [CBK283573],96.0143
4,Cc1ccc(-n2cccn2)cc1S(=O)(=O)N1CCNCC1C (stereo not drawn) [CBK307344],161.804
5,CCc1nn(CC(=O)N2CCCC2)c(=O)c2cc3ccsc3n12 [CBK284120],139.921
6,O=C(Nc1nnc(C2CCCCC2)s1)c1ccccc1I [CBK057918],82.2081
7,CC(C)CNC(=O)N1CCN(Cc2ccccc2)CC1 [CBK155644],121.32
8,NS(=O)(=O)c1ccc(CCNCC2CCCCC2)cc1 [CBK288467],174.692
9,Oc1ccc(-c2cccc(N3CCN(c4ccccn4)CC3)n2)cc1 [CBK037028],147.369
10,O=C(Nc1cccc(O)c1)c1ccc2c(c1)C(=O)N(Cc1ccco1)C2=O [CBK268640],118.185
11,OCCCn1cc(CN2CCC(CO)C2)c2ccccc21 (stereo not drawn) [CBK282114],146.671
12,CCNc1cncc(-c2cncc(OC)c2)n1 [CBK065366],107.466
13,Cn1c(SCCOc2ccccc2Cl)nnc1-c1ccncc1 [CBK265969],157.31
14,O=C(Nc1cccc(N2CCNCC2)c1)c1ccnc2ccccc12 [CBK029416T],111.03
15,CN(C)CCNCCOc1cccc([N+](=O)[O-])c1 [CBK267803C],111.397
16,O=C(OCc1ccc([N+](=O)[O-])cc1)C1CCN(S(=O)(=O)c2cccc3cccnc23)CC1 [CBK264430],128.625
17,c1ccc(N2CCN(c3cncc(-c4ccc5ccccc5c4)n3)CC2)nc1 [CBK066104],100.437
18,N#Cc1ccc(C(=O)N2C[C@@H]3C[C@H](C2)c2ccc(-c4cccc(C#N)c4)c(=O)n2C3)cc1 [CBK289187],115.099
19,Cc1ccc(C(=O)CC(C(=O)O)P(=O)(c2ccccc2)c2ccccc2)cc1 (stereo not drawn) [CBK265022],107.036
20,CCOC(=O)c1nc(-c2ccccc2)sc1C(C)=O [CBK067739],101.155
21,O=C(NCCOc1ccccc1)NC(=O)C1CCNCC1 [CBK088187T],106.022

# Individual results from above:
# % of control remaining [%], `Cc1ccc(-n2cccn2)cc1S(=O)(=O)N1CCNCC1C` (stereo not drawn) [CBK307344] reads 161.804
# % of control remaining [%], `CN(C)CCNCCOc1cccc([N+](=O)[O-])c1` [CBK267803C] reads 111.397
# % of control remaining [%], `c1ccc(N2CCN(c3cncc(-c4ccc5ccccc5c4)n3)CC2)nc1` [CBK066104] reads 100.437
# % of control remaining [%], `Cc1ccc(CNC(=O)c2cnoc2-c2ccc(Br)cc2)cc1F` [CBK154896] reads 97.1364
# % of control remaining [%], `OCCCn1cc(CN2CCC(CO)C2)c2ccccc21` (stereo not drawn) [CBK282114] reads 146.671
# % of control remaining [%], `O=C(Nc1cccc(O)c1)c1ccc2c(c1)C(=O)N(Cc1ccco1)C2=O` [CBK268640] reads 118.185

# (next part)

row,SMILES,% of control remaining [%]
1,CS(=O)(=O)Nc1nccnc1OC1CCN(CCCO)CC1 [CBK084275],108.41
2,CC1(C)CC(=O)c2sc(NC(=O)c3cccc(C(F)(F)F)c3)nc2C1 [CBK019941],100.099
3,C#CCNC(=O)[C@H]1O[C@H](CCN2CCOCC2)CC[C@@H]1O [CBK288729],144.752
4,CC(C)(C)OC(=O)N1CCCC2(CCCN(C(=O)c3ccco3)C2)C1 (stereo not drawn) [CBK284463],127.641
5,O=C(c1cncnc1)N1CCC2(CCN(Cc3ccccc3)CC2)C1 [CBK136782],122.238
6,CS(=O)(=O)Nc1nccnc1N1CCNCC1 [CBK074045T],109.085
7,CN1CCN(C(=O)c2ccc(-c3ccccc3)nc2NCCc2ccccn2)CC1 [CBK076550],100
8,COc1nc(N)nc(C/C(=N\NC(=O)c2cccnc2)C2CC2)n1 [CBK019872],109.85
9,COCCCn1c(=O)[nH]c2ncc(-c3cc(OC)c(OC)c(OC)c3)nc21 [CBK064937],200.789
10,Cc1ccc(CNCCNCCO)s1 [CBK278168C],137.775
11,CC(C)c1ccc(SCCc2ccccn2)cc1 [CBK026575C],123.813
12,Cc1cc2c(s1)c1cnn(CC(=O)NC(C)C)c(=O)c1n2C [CBK284155],119.104
13,COc1ccc([C@H]2CN(Cc3ccccc3)[C@@H]3CCN(C(=O)c4ccccc4F)C[C@H]23)cc1 [CBK285542],113.205
14,Cn1c(=O)c2c(ncn2CC(=O)Nc2cccc3ccccc23)n(C)c1=O [CBK133515],136.475
15,Cn1c(C(=O)OCC(=O)NC(C)(C)C)cc2occc21 [CBK284015],83.6663
16,O=C(O)CCCC(=O)NC12CC3CC(CC(C3)C1)C2 [CBK286958],117.643
17,CC(C)CC(=O)N1C[C@H]2NC(=O)c3ccccc3C(=O)[C@@]2(C)C1 [CBK281659],114.474
18,CN1C(C(=O)O)=CC(c2ccc(F)cc2)=NS1(=O)=O [CBK287016],111.371
19,O=C(C[C@@H]1CCNC[C@@H]1Cc1cc(CN2CCCCC2)on1)N1CCCCC1 [CBK289153],137.394
20,O=C(Nc1ccccc1N1CCNCC1)C1CCC1 [CBK004755T],90.0549
21,COc1cc(CN2CCC(N3CCN(c4ccccc4)CC3)CC2)ccc1OCc1ccccc1 [CBK264655G],100

row,SMILES,% of control remaining [%]
1,COC(=O)COc1ccc(Oc2nc(N(C)C)nc(N3CCOCC3)n2)nn1 [CBK267258],184.184
2,O=S(=O)(NCc1ccco1)N1CCOCC1 [CBK268749],132.214
3,CC(NC(=O)Nc1ccc(C(=O)NC(C)(C)C)cc1)c1cccc(Cl)c1 (stereo not drawn) [CBK298265],111.51
4,CC(C)(C)c1csc(NCc2c(O)ccc3ccccc23)n1 [CBK078381],54.5508
5,CSc1ccc(-c2nccnc2OCCC(C)C)cc1 [CBK106802],96.221
6,COc1cccc(-c2cnc3[nH]c(=O)n(CCCO)c3n2)c1 [CBK065036],101.508
7,COc1ccc(S(=O)(=O)N(CC(=O)N2CCC(C(N)=O)CC2)c2ccccc2)cc1 [CBK265301],93.1184
8,Cc1nc(CC(=O)N2CCC[C@@H]3NC(=O)c4ccccc4OCCCCC[C@@H]32)cs1 [CBK292113],132.517
9,CC(CSSCC(C)C(=O)O)C(=O)O (stereo not drawn) [CBK260940],103.067
10,OC[C@H]1O[C@@H](n2cnc3c(Cl)nccc32)C[C@H]1O [CBK201273],131.722
11,CCn1c(C)nnc1SCCNC(=O)c1cnc(N(C)C)nc1C [CBK307135],130.742
12,Cn1c(=O)c2c(=S)[nH]c(-c3ccccc3)nc2n(C)c1=O [CBK288422],105.764
13,O=C(O)CCC(=O)c1cccc([N+](=O)[O-])c1 [CBK263681],121.128
14,O=C1/C(=C/c2c(NCCCn3ccnc3)nc3ccccn3c2=O)SC(=S)N1CC1CCCO1 (stereo not drawn) [CBK111310],100
15,Cc1cccc2c3c([nH]c12)C1(CCCN(C/C=C\c2ccccc2)C1)N(C=O)CC3 (stereo not drawn) [CBK040265],152.907
16,COc1ccccc1CN(CC(C)(C)CN)C(=O)NC1C[C@H]1c1ccccc1 (stereo partly drawn) [CBK002424C],116.846
17,COc1ccc(OCCNC(=O)c2ccc(-c3ccccc3C)nc2N2CCN(C(=O)c3ccco3)CC2)cc1 [CBK076207],155.628
18,O=c1[nH]cc(-c2ccc(F)cc2)cc1CNCc1ccccc1F [CBK284696],112.794
19,COc1ccccc1N1CCN(CC(=O)Nc2cc(Cl)ccc2C)CC1 [CBK270087],97.6439
20,CNC(=O)c1ccc(-n2ccnc2)c(-n2cccc2)c1 [CBK282461],135.42
21,Cc1ccc(NC(=O)c2ccccc2NS(=O)(=O)c2cccc(C(=O)O)c2)cc1 [CBK296695],99.4209

row,SMILES,% of control remaining [%]
1,Nc1nnc(Sc2nc3ccccc3nc2N2CCCC2)s1 [CBK093750],134.267
2,O=[N+]([O-])c1cc(Br)cc(/C=N/Nc2nc3ccccc3[nH]2)c1O [CBK263486],100
3,Cc1ccc(-c2csc3ncnc(SCc4csc(C)n4)c23)cc1 [CBK267244],135.359
4,CC(Oc1cccc(Cl)c1)n1cnnc1 (stereo not drawn) [CBK022246],92.7548
5,Cc1noc(C)c1CN1CC2CCN(c3ccccc3)C2C1 (stereo not drawn) [CBK304847],107.085
6,CSc1nncc(-c2ccc(Cl)cc2)n1 [CBK028747],118.985
7,Nc1ncnc(Nc2cccc(C(F)(F)F)c2)n1 [CBK017403],117.696
8,NC(=O)c1ccc(NC(=O)N2CCCCC2CO)cc1 (stereo not drawn) [CBK156185],115.909
9,Cn1ccnc1C(NC(=O)c1cccnc1)c1ccc(F)c(F)c1 (stereo not drawn) [CBK283807],150.21
10,Cc1nc(-c2cccnc2)[nH]c(=O)c1CC(=O)N(C)C1CCCC1 [CBK304907],113.211
11,Cc1nc(-c2ccccc2)sc1CNC(=O)COc1ccc(F)cc1 [CBK092350],100
12,CC(Cc1ccccn1)N(C)C(=O)c1cccc(N2CCCC2=O)c1 (stereo not drawn) [CBK282153],96.5436
13,CO[C@@H]1CO[C@H]2[C@@H]1OC[C@@H]2Nc1nccc(-c2cccc(C#N)c2)n1 [CBK289532],129.136
14,Cc1noc(NS(=O)(=O)c2ccc(NC(=O)COc3cccc(Br)c3)cc2)c1C [CBK264086],16.0181
15,O=C1CC(C(=O)Nc2c(Cl)cccc2Cl)C2(CCCCC2)O1 (stereo not drawn) [CBK058445],145.129
16,CC1=C[C@@H](CNC(=O)NC(C)C)[C@H](C(C)C)C[C@H]1CC(=O)N1CCN(C)CC1 [CBK289047],104.257
17,Cc1noc(C)c1S(=O)(=O)Nc1nc(=O)[nH]cc1F [CBK067569],120.151
18,CSCC[C@@H]1CN2CCC[C@H]2CN1Cc1cnc(C)n1C [CBK285423],95.8259
